Laboratory results: PubChem BioAssay AID504774 (Drosophila RNAi Screening Center, 2011)
Aim: 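Genes required for cells to withstand methyl methanesulphonate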 (primary screen). System: Drosophila Kc167 cells. Knock-down reagent: long dsRNA against Drosophila genes, about 0.25 µg dsRNA per well. Timing: about 6 days: 3 days knock-down, then 3 days with or without MMS. Treatment: methyl methanesulphonate 0.004% (w/v) for 3 days after knock-down. Detection: 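ATP-dependent luminescence as a measure of live cells in MMS-exposed wells, quantile normalised within each plate, with replicate values also given as a mean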. Scale: mean viability with MMS and viability with MMS: higher = more surviving cells after MMS.
In all, the deposit lists about 23,000 reagents; below is a random part of those with a known target gene and a result. 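Values are quantile-normalised luminescence on an arbitrary scale; higher means more cells surviving MMS.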 A plus sign joins genes that one reagent is predicted to hit. Not all columns of the deposit are shown.

gene	amplicon	mean viability with MMS	viability with MMS, replicate 1
CG5080 (GeneID 33299)	DRSC00677	3.53e6	3.99e6
Liprin-beta (GeneID 39524)	DRSC09795	3.34e6	3.69e6
Liprin-beta (GeneID 39524)	DRSC23339	2.70e6	2.52e6
ND-13B (GeneID 39214)	DRSC10643	3.54e6	4.09e6
Ltn1 (GeneID 40127)	DRSC11056	3.42e6	3.91e6
Ltn1 (GeneID 40127)	DRSC11058	3.74e6	4.11e6
Tmtc4 (GeneID 41867)	DRSC15702	3.47e6	4.12e6
spn-F (GeneID 43700)	DRSC14475	3.27e6	3.76e6
CG10077 (GeneID 38756)	DRSC09691	3.52e6	3.96e6
CG7888 (GeneID 39232)	DRSC10926	3.71e6	4.18e6
CG9072 (GeneID 32443)	DRSC20147	3.49e6	3.96e6
OdsH (GeneID 32758)	DRSC20263	3.54e6	3.93e6
Adgf-E (GeneID 36627)	DRSC05973	3.65e6	4.30e6
CG13928 (GeneID 38195)	DRSC08397	3.60e6	4.19e6
Scp1 (GeneID 3355102)	DRSC20799	2.23e6	3.90e6
Scp1 (GeneID 3355102)	DRSC20803	2.25e6	3.89e6
Scp1 (GeneID 3355102)	DRSC20806	3.52e6	3.94e6
CG32945 (GeneID 318261)	DRSC12014	3.42e6	3.97e6
Prosbeta1 (GeneID 46058)	DRSC07159	2.77e6	3.50e6
csw (GeneID 45278)	DRSC18756	3.38e6	3.92e6
csw (GeneID 45278)	DRSC23326	3.11e6	3.38e6
BomBc3 (GeneID 50055)	DRSC15873	3.54e6	4.18e6
scpr-A + scpr-C + scpr-B	DRSC15715	3.57e6	4.03e6
CG12984 (GeneID 40321)	DRSC11693	3.56e6	3.98e6
CG9386 (GeneID 41148)	DRSC16485	3.62e6	3.98e6
CG11808 (GeneID 36687)	DRSC06088	3.68e6	4.16e6
Mgat4b (GeneID 39609)	DRSC10256	3.56e6	4.14e6
CG17780 (GeneID 42914)	DRSC15265	3.59e6	4.10e6
CG8089 (GeneID 36679)	DRSC07074	3.56e6	4.15e6
CG42525 (GeneID 8674097)	DRSC08026	3.48e6	4.02e6
CG42827 + CG42828	DRSC16116	3.35e6	3.92e6
Proc-R (GeneID 31408)	DRSC18410	3.66e6	4.18e6
CG13557 (GeneID 37717)	DRSC04195	3.62e6	4.18e6
Osi1 (GeneID 40752)	DRSC12271	3.67e6	4.21e6
CG6431 (GeneID 34476)	DRSC02956	3.45e6	3.93e6
Tep2 (GeneID 34044)	DRSC02679	3.38e6	3.89e6
Tep2 (GeneID 34044)	DRSC03451	3.31e6	3.52e6
CG9698 (GeneID 43629)	DRSC16539	3.36e6	3.77e6
Nox (GeneID 5740310)	DRSC06596	3.59e6	3.99e6
Nox (GeneID 5740310)	DRSC06857	3.53e6	3.96e6
CG34276 (GeneID 41934)	DRSC15811	3.66e6	4.13e6
Ir51a (GeneID 3771848)	DRSC06256	3.84e6	4.07e6
beat-IIIc (GeneID 35037)	DRSC02438	3.47e6	3.94e6
beat-IIIc (GeneID 35037)	DRSC02949	3.58e6	3.95e6
CG5276 (GeneID 41373)	DRSC15759	3.60e6	4.08e6
cid (GeneID 36495)	DRSC05429	3.59e6	3.99e6
cid (GeneID 36495)	DRSC07592	3.62e6	4.14e6
CG34429 (GeneID 5740606)	DRSC10120	3.55e6	4.03e6
Grip91 (GeneID 48481)	DRSC20249	3.31e6	3.74e6
Pitslre (GeneID 40292)	DRSC11874	3.33e6	3.72e6
Pitslre (GeneID 40292)	DRSC23346	1.44e6	1.31e6
CG6962 (GeneID 41436)	DRSC16153	3.30e6	3.73e6
LysB (GeneID 38125)	DRSC08673	3.74e6	4.21e6
tub (GeneID 40554)	DRSC12389	3.62e6	4.04e6
tub (GeneID 40554)	DRSC22800	3.36e6	3.87e6
CG18596 (GeneID 42622)	DRSC15355	3.44e6	3.95e6
Gld2 (GeneID 42602)	DRSC15863	2.91e6	3.59e6
Gld2 (GeneID 42602)	DRSC23037	3.80e6	4.33e6
Vps26 (GeneID 31144)	DRSC18555	3.51e6	3.99e6
CG6661 (GeneID 39556)	DRSC10687	3.51e6	3.97e6
S (GeneID 33281)	DRSC00785	3.38e6	3.77e6
PSMG1 (GeneID 40719)	DRSC12297	3.61e6	4.29e6
CG12091 (GeneID 38177)	DRSC08251	3.58e6	4.04e6
Acp36DE (GeneID 35096)	DRSC01860	3.42e6	3.99e6
Or85d (GeneID 41011)	DRSC16767	3.54e6	4.01e6
CG7079 (GeneID 42488)	DRSC16192	3.40e6	3.88e6
CG14913 (GeneID 34532)	DRSC02397	3.44e6	4.04e6
Gem3 (GeneID 39195)	DRSC11144	3.50e6	4.14e6

11 entries from above in another layout.
Nox (GeneID 5740310) [DRSC06596]: mean viability with MMS = 3.59e6; viability with MMS, replicate 1 = 3.99e6
Nox (GeneID 5740310) [DRSC06857]: mean viability with MMS = 3.53e6; viability with MMS, replicate 1 = 3.96e6
CG34276 (GeneID 41934) [DRSC15811]: mean viability with MMS = 3.66e6; viability with MMS, replicate 1 = 4.13e6
Ir51a (GeneID 3771848) [DRSC06256]: mean viability with MMS = 3.84e6; viability with MMS, replicate 1 = 4.07e6
beat-IIIc (GeneID 35037) [DRSC02438]: mean viability with MMS = 3.47e6; viability with MMS, replicate 1 = 3.94e6
beat-IIIc (GeneID 35037) [DRSC02949]: mean viability with MMS = 3.58e6; viability with MMS, replicate 1 = 3.95e6
CG5276 (GeneID 41373) [DRSC15759]: mean viability with MMS = 3.60e6; viability with MMS, replicate 1 = 4.08e6
cid (GeneID 36495) [DRSC05429]: mean viability with MMS = 3.59e6; viability with MMS, replicate 1 = 3.99e6
cid (GeneID 36495) [DRSC07592]: mean viability with MMS = 3.62e6; viability with MMS, replicate 1 = 4.14e6
CG34429 (GeneID 5740606) [DRSC10120]: mean viability with MMS = 3.55e6; viability with MMS, replicate 1 = 4.03e6
Grip91 (GeneID 48481) [DRSC20249]: mean viability with MMS = 3.31e6; viability with MMS, replicate 1 = 3.74e6
